{"source": "the supplement of paper PMC8256030", "note": "The list shows a part of the results. Repeats in this data set agree poorly, so a single value says little.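 HEK293T cells were given each compound shortly before transfection with a reporter in which red mCherry is followed by the SARS-CoV-2 frameshift element and then GFP in the −1 frame, so GFP appears only after frameshifting.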", "data": [{"system": "HEK293T", "assay": "percent viability (nuclei count) relative to control; higher = more viable cells", "conditions": "10 µM; 24 h", "units": {"percent viability": "%"}, "values": [{"smiles": "CC(=O)CC/C=C(\\C)CC/C=C(\\C)CC/C=C(\\C)CCC=C(C)C", "note": "[teprenone]", "percent viability": 223}, {"smiles": "CN1CCCN=C1/C=C/c1cccs1", "note": "[Pyrantel Pamoate]", "percent viability": 210}, {"smiles": "Cc1cc(C)cc(OCC2CNC(=O)O2)c1", "note": "(stereo unspecified) [metaxalone]", "percent viability": 276}, {"smiles": "CCN(CC)CCCCCCNc1cc(OC)cc2c(C)ccnc12", "note": "[sitamaquine]", "percent viability": 158}, {"smiles": "CN1C(C)(C)CCCC1(C)C", "percent viability": 213}, {"smiles": "Cc1ccc2c(Br)cc(Br)c(OC(=O)c3ccccc3)c2n1", "note": "[broxaldine]", "percent viability": 339}, {"smiles": "O=C(O)C1CCSCN1", "note": "(stereo unspecified) [omonasteine]", "percent viability": 188}, {"smiles": "CC(C)CCCCC(=O)N[C@@H](CCN)C(=O)N[C@@H](CN[C@@H](CCN)C(=O)N[C@H]1CCNC(=O)[C@H]([C@@H](C)O)NC(=O)[C@H](CCN)NC(=O)[C@H](CCN)NC(=O)[C@H](CC(C)C)NC(=O)[C@@H](CC(C)C)NC(=O)[C@H](CCN)NC1=O)[C@@H](C)O.CCC(C)CCCCC(=O)N[C@@H](CCN)C(=O)N[C@@H](CN[C@@H](CCN)C(=O)N[C@H]1CCNC(=O)[C@H]([C@@H](C)O)NC(=O)[C@H](CCN)NC(=O)[C@H](CCN)NC(=O)[C@H](CC(C)C)NC(=O)[C@@H](CC(C)C)NC(=O)[C@H](CCN)NC1=O)[C@@H](C)O", "note": "(stereo partly specified)", "percent viability": 151}, {"smiles": "Nc1nc2c(ncn2COCCO)c(=O)[nH]1", "note": "[Acycloguanosine]", "percent viability": 279}, {"smiles": "CCOC(CN1CCN(CC(C)C(=O)c2ccccc2)CC1)c1ccccc1", "note": "(stereo unspecified) [eprazinone]", "percent viability": 323}, {"smiles": "O=C(NNCS(=O)(=O)O)c1ccncc1", "note": "[methaniazide]", "percent viability": 236}]}]}
